Measurements reported in article PMC6896337.
Results are given in words; binding and its absence hold for the method and conditions named. Binding seen in cells or lysates may run through a third protein. Some entries that bind do so weakly or less than the wild type.

The chains behind the UniProt entries cited, without tags or fusion partners.
UniProt P08047: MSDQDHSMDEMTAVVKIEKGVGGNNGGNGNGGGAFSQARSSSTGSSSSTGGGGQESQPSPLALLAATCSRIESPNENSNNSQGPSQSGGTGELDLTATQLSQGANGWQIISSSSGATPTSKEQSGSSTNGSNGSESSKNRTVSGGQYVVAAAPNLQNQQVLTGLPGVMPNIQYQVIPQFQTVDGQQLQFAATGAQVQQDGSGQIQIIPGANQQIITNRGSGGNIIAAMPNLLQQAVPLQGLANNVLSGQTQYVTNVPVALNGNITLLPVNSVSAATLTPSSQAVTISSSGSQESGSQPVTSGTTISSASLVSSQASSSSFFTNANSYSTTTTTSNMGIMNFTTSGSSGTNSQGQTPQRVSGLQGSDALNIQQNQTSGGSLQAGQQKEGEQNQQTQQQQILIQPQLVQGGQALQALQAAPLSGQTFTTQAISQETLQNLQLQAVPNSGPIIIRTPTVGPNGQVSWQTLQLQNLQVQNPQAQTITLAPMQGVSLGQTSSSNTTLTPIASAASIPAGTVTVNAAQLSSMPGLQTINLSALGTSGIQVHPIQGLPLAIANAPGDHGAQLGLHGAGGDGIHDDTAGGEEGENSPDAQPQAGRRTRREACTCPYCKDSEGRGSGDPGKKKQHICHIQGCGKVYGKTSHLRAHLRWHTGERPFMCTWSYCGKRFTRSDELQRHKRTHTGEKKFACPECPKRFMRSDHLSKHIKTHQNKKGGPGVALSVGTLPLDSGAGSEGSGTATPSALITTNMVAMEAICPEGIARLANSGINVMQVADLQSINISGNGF

Experiments:
[1] = target: Sp1 (specificity protein 1) expressed in SL2 insect cells (UniProt P08047); assay: co-IP; SL2 cells 72 h after co-transfection with pAc Sp1 and NF-YA insect expression vectors; 500 μg extract, anti-Sp1 immunoprecipitation, Protein A Sepharose, 4 °C, Western blot for NF-YA; pre-immune IgG control
[2] = target: Sp1 (specificity protein 1), endogenous in SH-SY5Y transfectants (human (endogenous in SH-SY5Y)) (UniProt P08047); assay: co-IP; stable NF-YAl, NF-YAs and NF-YAx1 SH-SY5Y transfectants; 500 μg extract, anti-Sp1 immunoprecipitation, Protein A Sepharose, 4 °C, Western blot for NF-YA; pre-immune IgG control; NF-YAl and NF-YAs bands overlap non-specific NS1 and NS2 bands

Row | binding [1] | binding [2] | Substance
1 | binds |  | NF-YAl expressed in SL2 insect cells (from UniProt P23511-1 1-347)
2 |  | binds | NF-YAl in stable SH-SY5Y transfectants (from UniProt P23511-1 1-347)
